Our source for the binding values is article PMC3998917.

Amino acid sequences for entries named in this document (tags omitted).
UniProt Q59LN9: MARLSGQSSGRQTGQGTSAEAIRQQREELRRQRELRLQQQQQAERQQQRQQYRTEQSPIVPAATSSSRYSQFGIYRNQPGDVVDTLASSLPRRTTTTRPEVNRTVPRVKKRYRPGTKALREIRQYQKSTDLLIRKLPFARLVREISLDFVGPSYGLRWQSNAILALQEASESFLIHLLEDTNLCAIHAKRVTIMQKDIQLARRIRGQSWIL

Results are given in words; binding and its absence hold for the method and conditions named. Binding seen in cells or lysates may run through a third protein. Some entries that bind do so weakly or less than the wild type. Where a sequence is shown, tags or fusion partners need not be part of it.

One assay has as its target T1, Rad51-V5 (C. albicans) (UniProt Q59UY8).
T1 sequence: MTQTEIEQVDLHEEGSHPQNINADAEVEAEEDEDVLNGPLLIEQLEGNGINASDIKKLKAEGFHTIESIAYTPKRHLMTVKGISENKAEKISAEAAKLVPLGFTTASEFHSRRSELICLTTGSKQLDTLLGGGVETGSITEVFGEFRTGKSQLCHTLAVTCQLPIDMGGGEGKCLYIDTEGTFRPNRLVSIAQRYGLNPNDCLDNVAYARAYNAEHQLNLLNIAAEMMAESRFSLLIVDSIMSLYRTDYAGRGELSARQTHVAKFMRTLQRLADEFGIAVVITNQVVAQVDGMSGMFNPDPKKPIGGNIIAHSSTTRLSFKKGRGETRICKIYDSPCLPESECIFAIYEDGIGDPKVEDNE
Put plainly: co-IP; anti-V5 on Protein A-Sepharose 4B beads added to 0.8 ml crude extract (around 3 mg total protein) of Rad51-V5 or Rad52-V5 C. albicans strains, overnight at 4°C, washed four times with TBS-T; western blot with anti-CENP-A^CaCse4; untagged strains and no-antibody fractions as controls.

The next assay deals with T2, Rad52-V5 (C. albicans) (UniProt Q59NG2).
T2 sequence: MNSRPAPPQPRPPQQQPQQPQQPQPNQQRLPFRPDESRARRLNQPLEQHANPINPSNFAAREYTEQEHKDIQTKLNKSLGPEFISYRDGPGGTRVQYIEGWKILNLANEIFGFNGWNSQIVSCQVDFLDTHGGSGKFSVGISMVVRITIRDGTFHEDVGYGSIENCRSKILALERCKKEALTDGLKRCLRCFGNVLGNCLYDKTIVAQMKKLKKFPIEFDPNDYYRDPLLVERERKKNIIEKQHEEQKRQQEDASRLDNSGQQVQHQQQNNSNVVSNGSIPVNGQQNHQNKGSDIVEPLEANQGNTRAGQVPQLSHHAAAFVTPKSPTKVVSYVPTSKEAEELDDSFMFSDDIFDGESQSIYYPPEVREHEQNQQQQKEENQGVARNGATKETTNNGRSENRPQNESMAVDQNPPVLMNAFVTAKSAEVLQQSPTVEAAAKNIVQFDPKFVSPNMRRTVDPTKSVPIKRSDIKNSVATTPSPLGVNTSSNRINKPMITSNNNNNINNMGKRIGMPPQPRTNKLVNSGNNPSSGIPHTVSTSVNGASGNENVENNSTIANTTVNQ
The assay is described as above.

Turning to “CENP-A^CaCse4 (from UniProt Q59LN9 1-211)”, the binding result with Rad51-V5 (C. albicans) and with Rad52-V5 (C. albicans) was “binds” in each case.
